# Test results published in patent publication US6949538B2, “Compounds, compositions, and methods” (Cytokinetics, Inc., priority 2002, dated 2005).
# For at least one compound, name, drawing or mass did not settle the structure.
# Tested on: human ovarian tumor cell lines (SKOV-3)
# Assay: Inhibition of cellular proliferation in tumor cell lines treated with KSP inhibitors (MTS, 48 hours)
# Type: cell-based
# Settings: 48 hours compound exposure
smiles,measurement,value
"Cc1ccc(C(=O)N(CCCN)C(c2oc(C)cc(=O)c2Cc2ccccc2)C(C)C)cc1 (stereo not shown) [Example 1, N-(3-Amino-propyl)-N-[1-(3-benzyl-6-methyl-4-oxo-4H-pyran-2-yl)-2-methyl-propyl]-4-methyl-benzamide]",inhibition of cell proliferation,inhibited cell proliferation
